Source: patent US20220396825A1, “METHOD FOR PREPARING […]” (KAO CORPORATION, priority 2019, published 2022)

Tested on: fragments of sample DNA (genomic DNA of TA100 strain)
Assay: Frequency of misrecognition of fragments (proportion of cases with inclusion of different indexes)
Parameters: species or system Salmonella typhimurium

B1: S1 nuclease: single-strand-specific endonuclease (Promega Corporation, catalog No.: M5761) (protein, UniProt P24021 21-287, looked up)
Nuclease S1: WGNLGHETVAYIAQSFVASSTESFCQNILGDDSTSYLANVATWADTYKYTDAGEFSKPYHFIDAQDNPPQSCGVDYDRDCGSAGCSISAIQNYTNILLESPNGSEALNALKFVVHIIGDIHQPLHDENLEAGGNGIDVTYDGETTNLHHIWDTNMPEEAAGGYSLSVAKTYADLLTERIKTGTYSSKKDSWTDGIDIKDPVSTSMIWAADANTYVCSTVLDDGLAYINSTDLSGEYYDKSQPVFEELIAKAGYRLAAWLDLIASQPS
Increase rate of misrecognition of fragments (S1 nuclease 0.017 U/ng vs without S1 nuclease treatment): 1.04
Proportion (%) of cases with inclusion of different indexes (S1 nuclease 0.02 U/ng, input DNA 78 amol): 1.60%
Increase rate of misrecognition of fragments (S1 nuclease 0.050 U/ng vs without S1 nuclease treatment): 1.16
Proportion (%) of cases with inclusion of different indexes (S1 nuclease 0.05 U/ng, input DNA 78 amol): 1.77%
Proportion (%) of cases with inclusion of different indexes (S1 nuclease 0.08 U/ng, input DNA 20 amol): 1.29%
Proportion (%) of cases with inclusion of different indexes (S1 nuclease 0.08 U/ng, input DNA 39 amol): 2.69%
Increase rate of misrecognition of fragments (S1 nuclease 0.167 U/ng vs without S1 nuclease treatment): 2.32
Proportion (%) of cases with inclusion of different indexes (S1 nuclease 0.17 U/ng, input DNA 78 amol): 3.56%
Proportion (%) of cases with inclusion of different indexes (S1 nuclease 0.25 U/ng, input DNA 20 amol): 2.05%
Proportion (%) of cases with inclusion of different indexes (S1 nuclease 0.25 U/ng, input DNA 39 amol): 4.32%
Proportion (%) of cases with inclusion of different indexes (S1 nuclease 0.30 U/ng only (RecJf 0 U/ng), input DNA 78 amol): 6.03%
Increase rate of misrecognition of fragments (S1 nuclease 0.500 U/ng vs without S1 nuclease treatment): 4.85
Proportion (%) of cases with inclusion of different indexes (S1 nuclease 0.50 U/ng, input DNA 78 amol): 7.44%
Increase rate of misrecognition of fragments (S1 nuclease 1.67 U/ng vs without S1 nuclease treatment): 6.72
Proportion (%) of cases with inclusion of different indexes (S1 nuclease 1.67 U/ng, input DNA 78 amol): 10.32%
